Assay results taken from paper PMC4289911 (Nuclear Medicine and Biology, 2015).

Experiment: general procedure: Fmoc solid-phase peptide synthesis; tritylchloride resin (TCP resin); HATU/HOAt/DIPEA (conjugation to [Fe]FSC); DPPA/NaHCO3 (cyclisation)
Conditions: late stage modification step, TFA salt

Substance	step yield	final HPLC purity (RP-HPLC) [%]	step yield (run 1)	step yield (run 2)
cyclo(-Arg(Pbf)-Gly-Asp(OtBu)-DPhe-Lys(Succ)-)	56% of theoretical yield	–	–	–
PEPTIDE1{R.G.D.[dF].K}|PEPTIDE2{R.G.D.[dF].K}|PEPTIDE3{R.G.D.[dF].K}|CHEM1{[FSC]}|CHEM2{[Succ]}|CHEM3{[Succ]}|CHEM4{[Succ]}$PEPTIDE1,PEPTIDE1,1:R1-5:R2|PEPTIDE2,PEPTIDE2,1:R1-5:R2|PEPTIDE3,PEPTIDE3,1:R1-5:R2|PEPTIDE1,CHEM2,5:R3-1:R1|PEPTIDE2,CHEM3,5:R3-1:R1|PEPTIDE3,CHEM4,5:R3-1:R1|CHEM2,CHEM1,1:R2-1:R1|CHEM3,CHEM1,1:R2-1:R2|CHEM4,CHEM1,1:R2-1:R3$$$V2.0	–	> 95	37% of theoretical yield	approx. 40%

Some peptides are written in HELM: one residue between dots, names in brackets for other building blocks, links after the first $.
